In article PMC11344771:
No constants are given. Whether binding was seen depends on the method and setting. A result given as binding can be weak or reduced; the word gives no strength.

The chains behind the UniProt entries cited, without tags or fusion partners. Where a name states a change or a piece, a line headed by the entry shows the natural chain unless it says otherwise.
UniProt Q96PY5: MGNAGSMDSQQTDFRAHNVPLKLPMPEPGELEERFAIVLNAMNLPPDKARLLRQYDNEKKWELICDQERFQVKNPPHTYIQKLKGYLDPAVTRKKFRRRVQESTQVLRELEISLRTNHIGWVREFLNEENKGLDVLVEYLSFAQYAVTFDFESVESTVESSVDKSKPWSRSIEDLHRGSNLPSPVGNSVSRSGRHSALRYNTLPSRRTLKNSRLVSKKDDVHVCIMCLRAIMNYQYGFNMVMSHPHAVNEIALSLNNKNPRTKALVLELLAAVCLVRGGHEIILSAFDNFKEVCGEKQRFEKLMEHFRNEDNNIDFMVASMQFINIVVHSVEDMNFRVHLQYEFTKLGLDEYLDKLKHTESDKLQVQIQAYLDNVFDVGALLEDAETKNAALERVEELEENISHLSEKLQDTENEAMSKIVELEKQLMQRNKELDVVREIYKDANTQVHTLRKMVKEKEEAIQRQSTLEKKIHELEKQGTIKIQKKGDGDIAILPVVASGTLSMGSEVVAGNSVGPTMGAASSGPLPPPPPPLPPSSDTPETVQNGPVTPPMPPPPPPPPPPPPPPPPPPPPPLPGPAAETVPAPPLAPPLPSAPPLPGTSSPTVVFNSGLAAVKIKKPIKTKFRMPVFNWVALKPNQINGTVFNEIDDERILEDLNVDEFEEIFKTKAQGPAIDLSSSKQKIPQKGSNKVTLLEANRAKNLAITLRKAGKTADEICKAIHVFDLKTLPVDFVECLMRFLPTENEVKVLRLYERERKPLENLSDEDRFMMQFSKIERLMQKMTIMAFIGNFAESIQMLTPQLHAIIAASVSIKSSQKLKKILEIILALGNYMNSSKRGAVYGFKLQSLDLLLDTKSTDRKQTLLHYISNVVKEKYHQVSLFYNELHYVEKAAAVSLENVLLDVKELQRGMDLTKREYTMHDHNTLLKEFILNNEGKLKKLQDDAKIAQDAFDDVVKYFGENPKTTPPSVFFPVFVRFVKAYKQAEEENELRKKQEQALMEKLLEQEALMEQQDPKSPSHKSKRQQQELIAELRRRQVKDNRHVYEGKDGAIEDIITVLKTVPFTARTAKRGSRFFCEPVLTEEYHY
UniProt P60953: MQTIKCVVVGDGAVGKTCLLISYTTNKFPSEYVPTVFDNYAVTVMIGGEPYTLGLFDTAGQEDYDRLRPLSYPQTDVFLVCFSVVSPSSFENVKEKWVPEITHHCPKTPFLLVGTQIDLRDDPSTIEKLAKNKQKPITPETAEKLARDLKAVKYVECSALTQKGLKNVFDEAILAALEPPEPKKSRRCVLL

Biological target: FMNL2 (S171DD) fused to GST (UniProt Q96PY5)
Experiment: pull-down; Glutathione agarose, FMNL2GST as bait, equimolar test protein, 5 min RT then 30 min 4 °C, washed 6x with 50 mM Tris-HCl, 150 mM NaCl, pH 8.5; immunoblot, normalised Elution:FT ratio against GST only; both purified

- binding: binds
Substance: Cdc42 bound to a non-hydrolysable GTP analogue (Cdc42_(GppNHp)) (from UniProt P60953 1-191)
